{"source": "the supplement of paper PMC4635364", "key": {"[1]": {"system": "ReNCell VM", "assay": "neuronal differentiation score (DCX+ cell fraction vs untreated, manual image score) (score (-3 to 3)); higher = more neuronal differentiation", "conditions": "2 uM, 2 weeks"}, "[2]": {"system": "ReNCell VM", "assay": "dopaminergic neuron differentiation score (TH+ cell fraction vs untreated, manual image score) (score (0 to 3)); higher = more TH+ dopaminergic neuron differentiation", "conditions": "2 uM, 4 weeks, BDNF 10 ng/ml + GDNF 10 ng/ml"}}, "note": "Structures can show the parent of a compound that is named as a salt. Some of the results follow. Single values are uncertain here, since repeats match poorly.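 Human fetal ventral-midbrain neural progenitor line ReNCell VM, differentiated without mitogens. Images stained for doublecortin (early neurons) or tyrosine hydroxylase (dopaminergic neurons) were scored by blinded raters against untreated wells (0 = no change). Repeats and both raters were averaged, and compounds averaging 2 or higher were picked as hits for retesting.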", "data": [{"compound": "Cc1cc(-n2c(=O)[nH]c(=O)n(C)c2=O)ccc1Oc1ccc(SC(F)(F)F)cc1", "note": "[Toltrazuril]", "values": [{"measurement": "neuronal differentiation score", "setting": "[1]; library: Prestwick", "value": "inactive: 0"}, {"measurement": "dopaminergic neuron differentiation score", "setting": "[2]; library: Prestwick", "value": "inactive: 0"}]}, {"compound": "C/C=C1\\C(=O)C[C@H]2[C@@H]3CCC4=CC(=O)CC[C@]4(C)[C@H]3CC[C@]12C", "note": "[(Z)-Guggulsterone]", "values": [{"measurement": "neuronal differentiation score", "setting": "[1]; library: LOPAC", "value": "inactive: 0"}, {"measurement": "dopaminergic neuron differentiation score", "setting": "[2]; library: LOPAC", "value": "inactive: 0"}]}, {"compound": "C[C@H](CCC(=O)O)[C@H]1CC[C@H]2[C@@H]3C(=O)C[C@@H]4CC(=O)CC[C@]4(C)[C@H]3CC(=O)[C@]12C", "values": [{"measurement": "neuronal differentiation score", "setting": "[1]; library: Spectrum", "value": "inactive: 0"}, {"measurement": "dopaminergic neuron differentiation score", "setting": "[2]; library: Spectrum", "value": "inactive: 0"}]}, {"compound": "O=C(O)[C@H]1/C(=C/CO)O[C@@H]2CC(=O)N21", "note": "[Clavulanate potassium salt]", "values": [{"measurement": "neuronal differentiation score", "setting": "[1]; library: Prestwick", "value": "inactive: 0"}, {"measurement": "dopaminergic neuron differentiation score", "setting": "[2]; library: Prestwick", "value": "inactive: 0"}]}, {"compound": "O=C1C(O)=C([C@H]2CC[C@H](c3ccc(Cl)cc3)CC2)C(=O)c2ccccc21", "values": [{"measurement": "neuronal differentiation score", "setting": "[1]; library: Spectrum", "value": "inactive: 0"}, {"measurement": "dopaminergic neuron differentiation score", "setting": "[2]; library: Spectrum", "value": "inactive: 0"}]}]}
